Article doi:10.1101/768341
These are yes or no findings as the source states them, for the method shown. Binding seen in cells or lysates may run through a third protein. Some binding calls cover weakened binding; strength is not graded here. For some assays here: Sequences can lack the tags named with a protein.

Protein sequences, listed by entry. Tags and fused reporters are not part of them. Residues count along the entry.
UniProt P97546, residues 29-393: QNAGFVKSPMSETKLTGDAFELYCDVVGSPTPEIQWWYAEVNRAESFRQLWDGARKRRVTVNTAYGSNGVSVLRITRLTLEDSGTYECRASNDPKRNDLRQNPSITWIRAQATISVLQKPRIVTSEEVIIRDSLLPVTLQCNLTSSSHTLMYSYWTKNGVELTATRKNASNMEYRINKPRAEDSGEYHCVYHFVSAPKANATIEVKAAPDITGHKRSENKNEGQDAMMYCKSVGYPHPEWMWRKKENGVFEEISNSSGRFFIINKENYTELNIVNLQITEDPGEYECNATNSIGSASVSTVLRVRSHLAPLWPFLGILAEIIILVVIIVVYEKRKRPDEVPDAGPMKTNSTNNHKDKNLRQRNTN

Columns and labels:
[1] = biological target: neuroplastin (endogenous, rat brain) (rat (endogenous in brain)) (UniProt P97546); experiment: co-IP
[2] = biological target: Np65DDEP(-)-GFP (UniProt P97546); experiment: co-IP

B1: TRAF6 (endogenous, rat brain) (protein, UniProt B5DF45 1-530)
chain: MSLLNCENSCASSQSSSDCCAAMANSCSAAMKDDSVSGCVSTGNLSSSFMEEIQGYDVEFDPPLESKYECPICLMALREAVQTPCGHRFCKACITKSIRDAGHKCPVDNEILLENQLFPDNFAKREILSLTVKCPNKGCVQKMELRHLEDHQVHCEFALVICPQCQRFFQKCQINKHIIEDCPRRQVSCVNCAVPMPYEEKEIHDQSCPLANIICEYCGTILIREQMPNHYDLDCPTAPVPCTFSVFGCHEKMQRNHLARHLQENTQLHMRLLAQAVHNVNLSLRPCDASSPSRGCRPEDPNYEETVKQLEGRLVRQDHQIRELTAKMETQSMHVSELKRTIRSLEDKVAEMEAQQCNGIYIWKIGNFGMHLKSQEEERPVVIHSPGFYTGRPGYKLCMRLHLQLPTAQRCANYISLFVHTMQGEYDSHLPWPFQGTIRLTILDQSEAVIRQNHEEVMDAKPELLAFQRPTIPRNPKGFGYVTFMHLEALRQGTFIKDDTLLVRCEVSTRFDMGGLRKEGFQPRSTDAGV
binding [1]: binds

B2: Flag-TRAF6 (protein, UniProt P70196 1-530)
chain: MSLLNCENSCGSSQSSSDCCAAMAASCSAAVKDDSVSGSASTGNLSSSFMEEIQGYDVEFDPPLESKYECPICLMALREAVQTPCGHRFCKACIIKSIRDAGHKCPVDNEILLENQLFPDNFAKREILSLTVKCPNKGCLQKMELRHLEDHQVHCEFALVNCPQCQRPFQKCQVNTHIIEDCPRRQVSCVNCAVSMAYEEKEIHDQSCPLANIICEYCGTILIREQMPNHYDLDCPTAPIPCTFSVFGCHEKMQRNHLARHLQENTQLHMRLLAQAVHNVNLALRPCDAASPSRGCRPEDPNYEETIKQLESRLVRQDHQIRELTAKMETQSMYVGELKRTIRTLEDKVAEMEAQQCNGIYIWKIGNFGMHLKSQEEERPVVIHSPGFYTGRPGYKLCMRLHLQLPTAQRCANYISLFVHTMQGEYDSHLPWPFQGTIRLTILDQSEALIRQNHEEVMDAKPELLAFQRPTIPRNPKGFGYVTFMHLEALRQGTFIKDDTLLVRCEVSTRFDMGGLRKEGFQPRSTDAGV
binding [2]: binds
